Assay results as given in patent US7615377B2, “Fluorescein-based metal sensors” (Massachusetts Institute of Technology, priority 2003, dated 2009).

Test: Hg^2+ binding studies by absorption spectroscopy (Job analysis, metal binding titration) to obtain stoichiometry
Settings: 10 μM probe; for Job analysis, break (change in slope): 10 μM Hg^2+ solution

Structure (SMILES) | Job analysis, break (change in slope) (pH 7 (50 mM PIPES, 100 mM KCl)) | metal binding titration, break (pH 11 (50 mM CABS, 100 mM KCl)) | metal binding titration, break (pH 7 (50 mM PIPES, 100 mM KCl))
O=C(O)c1ccccc1-c1c2cc(Cl)c(=O)cc-2oc2c(CN(CCS)Cc3ccccn3)c(O)ccc12 [sensor 1] | 0.5 | 1 equivalent of Hg^2+ | 
CCSCCN(CCSCC)Cc1ccccc1NCc1c(O)ccc2c(-c3ccccc3C(=O)O)c3cc(Cl)c(=O)cc-3oc12 [sensor 3, 2-{5-[(2-{[Bis-(2-ethylsulfanyl-ethyl)-amino]-methyl}-phenylamino)-methyl]-2-chloro-6-hydroxy-3-oxo-3H-xanthen-9-yl}-benzoic acid] |  |  | 1 equivalent of Hg^2+
CC(C)(S)CN(Cc1ccccn1)Cc1c(O)ccc2c(-c3ccccc3C(=O)O)c3cc(Cl)c(=O)cc-3oc12 [sensor 2] | 0.5 |  | 
